These results are taken from PMC6843132.

Results are given in words; binding and its absence hold for the method and conditions named. Some results given as binding are weak or reduced against the parent protein; the word gives no strength. Tags and fused reporters may be left off the sequences shown.

For the assay, the target named is T1, 6His-NF-YB2 (AtNF-YB2 aa 24-116) (A. thaliana) (UniProt Q9FGJ3).
T1 sequence: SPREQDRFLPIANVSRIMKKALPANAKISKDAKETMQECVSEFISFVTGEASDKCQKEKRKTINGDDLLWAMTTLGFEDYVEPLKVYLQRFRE
Nature of the assay: co-purification (IMAC, then gel filtration); 6His-NF-YB2 and NF-YC3 co-expressed in E. coli; nickel IMAC, thrombin cleavage, gel filtration in 10 mM Tris-HCl pH 8.0, 400 mM NaCl, 2 mM DTT. In general terms: SEC sorts molecules by how far they enter the pores of the column.

B1: NF-YC3 (AtNF-YC3 aa 55-148) (domain or fragment, UniProt Q9ZVL3 55-148)
chain: TQFKEIEKTTDFKNHSLPLARIKKIMKADEDVRMISAEAPVVFARACEMFILELTLRSWNHTEENKRRTLQKNDIAAAVTRTDIFDFLVDIVPR
As to B1, the binding result is recorded as “binds”.
